PubChem BioAssay AID1259254 | NCATS – 2017

Purpose: 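Finding genes that stop cells copying their DNA twice in one cycle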 (primary screen)
Cells: human HCT116 colorectal cancer cells
Reagents: single siRNA against human genes
Timing: 3 days
Measurement: 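Imaged Hoechst DNA stain sorts each cell into a cycle phase by DNA amount; per plate, G2 fraction set to 0% for non-targeting and 100% for GMNN siRNA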
Reading the numbers: G2 robust z-score: higher = more G2 cells, more excess DNA replication
Call rule: 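Active siRNAs have a G2 robust z of 5 or more median absolute deviations over the median, which in these data means about 38% or higher of GMNN control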
Shown is a random part of about 59,000 reagents. Of all reagents, about 1,550 (2.6%) are marked active. 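G2 share is only a proxy for re-replication; each gene was hit by three separate siRNAs, and active genes were retested.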 A number with no mark means an inactive call. The numbers tell different reagents against one gene apart. Not all columns of the deposit are shown. The record does not give: the amount of reagent.

ASB8 (GeneID 140461) #1 gave G2 robust z-score 0.399.
For ASB8 (GeneID 140461) #2, the values are G2 robust z-score -0.0663.
ASB8 (GeneID 140461) #3 showed G2 robust z-score -0.237.
GSTT2 (GeneID 2953) #1 showed G2 robust z-score -0.151.
Knock-down of GSTT2 (GeneID 2953) #2 resulted in: G2 robust z-score -0.758.
After knock-down of GSTT2 (GeneID 2953) #3, the record shows G2 robust z-score 1.46.
For ZNF229 (GeneID 7772) #1 the deposit lists G2 robust z-score -0.575.
Against ZNF229 (GeneID 7772) #2 the deposit lists G2 robust z-score -0.14.
ZNF229 (GeneID 7772) #3 gave G2 robust z-score 0.918.
FADS3 (GeneID 3995) #1 gave G2 robust z-score 1.88.
With knock-down of FADS3 (GeneID 3995) #2 the results were G2 robust z-score -0.317.
After knock-down of FADS3 (GeneID 3995) #3 the results were G2 robust z-score 2.04.
Knock-down of LUM (GeneID 4060) #1 resulted in: G2 robust z-score 0.0283.
With knock-down of LUM (GeneID 4060) #2, the record shows G2 robust z-score -0.88.
Against LUM (GeneID 4060) #3, the values are G2 robust z-score -0.826.
Knock-down of NKTR (GeneID 4820) #1 gave: G2 robust z-score -1.17.
Against NKTR (GeneID 4820) #2, the entry reads G2 robust z-score 2.65.
Knock-down of NKTR (GeneID 4820) #3 came out at: G2 robust z-score 4.87.
After knock-down of CENPI (GeneID 2491) #1, the record shows G2 robust z-score 0.349.
CENPI (GeneID 2491) #2 scored G2 robust z-score 1.29.
CENPI (GeneID 2491) #3 showed G2 robust z-score 1.06.
Knock-down of STK11 (GeneID 6794) #1 gave: G2 robust z-score 0.554.
With knock-down of STK11 (GeneID 6794) #2 the results were G2 robust z-score 2.01.
STK11 (GeneID 6794) #3 showed G2 robust z-score -0.00548.
AMY1A (GeneID 276) #1 showed G2 robust z-score -0.686.
After knock-down of AMY1A (GeneID 276) #2, the screen gave G2 robust z-score -0.223.
Depletion of AMY1A (GeneID 276) #3 came out at: G2 robust z-score 0.677.
Against HIP1 (GeneID 3092) #1, the entry reads G2 robust z-score -0.609.
Depletion of HIP1 (GeneID 3092) #2 resulted in: G2 robust z-score -0.584.
With knock-down of HIP1 (GeneID 3092) #3, the record shows G2 robust z-score -0.254.
